Measured values as given in PubChem BioAssay AID330 (DTP/NCI, 2004).
The list does not hold the whole screen: it gathers tests that were run many times, whatever their T/C, doses with no T/C, and many T/C values between a quarter and a half above the control. Further doses and runs are listed elsewhere. T/C is the treated group as % of the vehicle group. Some doses have a count of surviving animals in place of a T/C: the source files T/C as zero there, which appears to mark a toxic dose or a test without result, not a measured value. Some doses without a T/C left all or most animals alive at the check, yet need not have been tolerated: survival well below the control is almost never listed, so the zero probably covers shortened survival too. Counts of survivors are from the toxicity check (mostly the fifth day) where no day follows; animals may have died later. Schedules are NCI's codes, read here as Q, the interval in days (D) or hours (H), X, the number of doses. Some doses were run more than once; their values stand side by side, smallest first. Where survival is the endpoint, this PubChem deposit counts one and a half times the control or more as active, and values a quarter to a half above the control carry no call in these data; other NCI protocols may use other cut-offs. Some T/C values carry the count of animals alive at the toxicity check (mostly the fifth day); where none is given, no animal had died by that day.

Tested on: P388 leukemia ip, CD2F1 mice, survival T/C
Assay: NCI In Vivo Anticancer Drug Screen. Data for tumor model P388 Leukemia (intraperitoneal) in CD2F1 (CDF1) mice
Conditions: T/C endpoint: median survival time, higher T/C = longer survival
[1] = dose: 400.0 mg/kg/injection, schedule: Q04DX003 (ip), vehicle: saline
[2] = dose: 200.0 mg/kg/injection, schedule: Q01DX005 (ip), vehicle: Klucel (hydroxypropylcellulose) (HPC)
[3] = dose: 100.0 mg/kg/injection, schedule: Q01DX009 (ip), vehicle: saline with Tween-80
[4] = dose: 100.0 mg/kg/injection, schedule: Q01DX009 (ip), vehicle: saline
[5] = dose: 100.0 mg/kg/injection, schedule: Q01DX005 (ip), vehicle: saline with Tween-80
[6] = dose: 200.0 mg/kg/injection, schedule: Q01DX005 (ip), vehicle: saline with Tween-80
[7] = dose: 200.0 mg/kg/injection, schedule: Q01DX009 (ip), vehicle: saline with Tween-80
[8] = dose: 240.0 mg/kg/injection, schedule: Q01DX005 (ip), vehicle: saline with Tween-80

## CCN(CC)CCOCC(=O)Nc1c(C)cccc1Cl
[1]
  survivor count: 0 of 6

## N#Cc1ncnc2nc[nH]c12
[2]
  survivor count: 0 of 5

## CC[N+](CC)=c1ccc2nc3c(cc(Nc4ccccc4)c4ccccc43)oc-2c1.[Cl][Zn][Cl]
dose: 240.0 mg/kg/injection, schedule: Q01DX005 (ip), vehicle: Klucel (hydroxypropylcellulose) (HPC)
  survivor count: 0 of 6

## OCc1ccn2c1C(O)CC2 (centres undefined)
dose: 25.0 mg/kg/injection, schedule: Q01DX009 (ip), vehicle: saline
  T/C: 125 % of control

## O=S(=O)(CCl)OCCCCOS(=O)(=O)CCl
dose: 25.0 mg/kg/injection, schedule: Q01DX009 (ip), vehicle: saline with Tween-80
  T/C: 127 % of control
dose: 50.0 mg/kg/injection, schedule: Q01DX009 (ip), vehicle: saline with Tween-80
  T/C: 131 % of control
[3]
  T/C: 145 % of control [5 of 6 alive]
[4]
  T/C: 133 % of control

## N#CC(Br)C(N)=O (centres undefined)
dose: 10.0 mg/kg/injection, schedule: Q01DX009 (ip), vehicle: saline with Tween-80
  T/C: 126 % of control

## COC(=O)C#CC(N)=O
dose: 2.5 mg/kg/injection, schedule: Q01DX009 (ip), vehicle: saline sonified
  T/C: 127 % of control

## O=C(Nc1ncnc2nc[nH]c12)NC1CCCCC1
[5]
  survivor count: 0 of 5
[6]
  survivor count: 0 of 5

## C=CC1CCC[S+]1CC(=O)OCC (centres undefined)
[5]
  survivor count: 1 of 6
[6]
  survivor count: 0 of 6

## CCCCNC(=S)N/N=C/c1nc2ccccc2c(=O)n1-c1ccc(Br)cc1
dose: 400.0 mg/kg/injection, schedule: Q04DX002 (ip), vehicle: saline with Tween-80
  survivor count: 6 of 6

## CC(C)(COS(C)(=O)=O)COS(C)(=O)=O
dose: 50.0 mg/kg/injection, schedule: Q01DX009 (ip), vehicle: suspension in saline
  survivor count: 5 of 6
dose: 400.0 mg/kg/injection, schedule: Q01DX009 (ip), vehicle: saline
  T/C: 131 % of control

## O=C1c2ccccc2C(=O)N1CCc1ccccc1Br
[2]
  survivor count: 5 of 5

## O=C(Nc1cccc(Cl)c1Cl)OCCCc1ccncc1
[7]
  survivor count: 6 of 6

## CC(C)(C)OC1CCC2=CC(=O)CCC21C (centres undefined)
dose: 200.0 mg/kg/injection, schedule: Q04DX002 (ip), vehicle: other
  T/C: 127 % of control
dose: 400.0 mg/kg/injection, schedule: Q04DX002 (ip), vehicle: other
  T/C: 133 % of control

## C[C@@H]1C(=O)O[C@H]2[C@H]1CC[C@@]1(C)C=C(Cl)C(=O)[C@@H](C)[C@H]21
dose: 200.0 mg/kg/injection, schedule: Q04DX002 (ip), vehicle: saline with Tween-80
  survivor count: 0 of 6

## CCC(=O)[O][Sn]([CH3])([CH3])[O][Sn]([CH3])([CH3])[O]C(=O)CC
dose: 25.0 mg/kg/injection, schedule: Q01DX005 (ip), vehicle: saline
  T/C: 131 % of control
dose: 50.0 mg/kg/injection, schedule: Q01DX005 (ip), vehicle: saline
  survivor count: 3 of 6 and 4 of 6
dose: 100.0 mg/kg/injection, schedule: Q01DX005 (ip), vehicle: saline
  survivor count: 1 of 6
dose: 200.0 mg/kg/injection, schedule: Q01DX005 (ip), vehicle: saline
  survivor count: 0 of 6

## CN(C)c1nc(N)nc(Nc2ccc(Br)cc2)c1N=O
[3]
  survivor count: 6 of 6
[7]
  survivor count: 6 of 6
dose: 400.0 mg/kg/injection, schedule: Q01DX009 (ip), vehicle: saline with Tween-80
  survivor count: 0 of 6

## CC1(C(F)(F)F)CC(=O)NN1 (centres undefined)
[4]
  survivor count: 2 of 6

## CC(=N/N=C(N)N)/C(C)=N\Nc1ccc(Cl)cc1
dose: 200.0 mg/kg/injection, schedule: Q04DX003 (ip), vehicle: saline
  survivor count: 1 of 6
[1]
  survivor count: 0 of 6

## S=c1sc2ccccc2n1CN1CCOCC1
[6]
  T/C: 128 and 131 % of control
dose: 400.0 mg/kg/injection, schedule: Q01DX005 (ip), vehicle: saline with Tween-80
  survivor count: 3 of 6

## CCN(CC)C(=S)C(C)(C)C
[8]
  survivor count: 0 of 6

## Cc1cc(C2=CSC3=NCCN23)ccc1Cl
[6]
  survivor count: 0 of 5

## CCC(=O)NC(C)C(=O)O (centres undefined)
dose: 50.0 mg/kg/injection, schedule: Q01DX009 (ip), vehicle: saline
  survivor count: 4 of 6

## CCCCCCCC(=O)NCCCC(C)Nc1cc(OC)cc2cccnc12 (centres undefined)
[8]
  survivor count: 0 of 6

## CCO/C=C1N=C(/C=C/c2ccc(Cl)cc2)OC/1=O
[8]
  survivor count: 6 of 6
